Measurements reported in PubChem BioAssay AID652243 (Drosophila RNAi Screening Center, 2013)
In all, the deposit lists about 24,000 reagents; shown is an unselected part of those with a known target gene and a result. Of all reagents, 246 (1%) were called active. 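Plates not normalised; calls are printed but the firefly/Renilla ratio behind them is not deposited; fold cut for lowering reported inconsistently.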 The raw values are shown without normalisation. Reagent sequences are not shown. Not stated in the record: the amount of reagent.

Test: 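Fly genes required for human androgen receptor driven transcription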 (primary screen)
System: Drosophila S2R+ cells
Reagent: long dsRNA against Drosophila genes
Time to read-out: 72 h (48 h, then 24 h hormone)
Conditions: synthetic androgen R1881 at 10 nM for 24 h
Measurement: 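Per-well raw luminescence of the androgen-driven firefly reporter and of the Renilla control, two replicates each, without normalisation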
Scale: firefly reporter light: higher = more light from androgen-responsive reporter; Renilla control light: higher = more constitutive control signal (cell number, transfection)
Call rule: 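Hit when the log firefly-to-Renilla ratio dropped or increased by a fixed fold versus the mean of GFP or LacZ controls across duplicate plates; lowering cut given as 1.5 and as 3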
Calls: active = hit: reporter lowered or raised; inactive = no hit

Depletion of CG7631 [DRSC01873] came out at: firefly reporter light, replicate 1 = 1.59e5; firefly reporter light, replicate 2 = 2.38e5; Renilla control light, replicate 1 = 1.83e6; Renilla control light, replicate 2 = 2.33e6; inactive.
With knock-down of mei-S332 [DRSC04704], the screen gave firefly reporter light, replicate 1 = 6.79e5; firefly reporter light, replicate 2 = 6.44e5; Renilla control light, replicate 1 = 1.56e6; Renilla control light, replicate 2 = 1.24e6; inactive.
Against CG13022 [DRSC09902], the entry reads firefly reporter light, replicate 1 = 2.44e5; firefly reporter light, replicate 2 = 2.50e5; Renilla control light, replicate 1 = 2.20e6; Renilla control light, replicate 2 = 1.85e6; inactive.
With knock-down of Mlc1 [DRSC16740], the record shows firefly reporter light, replicate 1 = 1.96e5; firefly reporter light, replicate 2 = 1.73e5; Renilla control light, replicate 1 = 1.88e6; Renilla control light, replicate 2 = 1.78e6; inactive.
Mlc1 [DRSC27232] showed firefly reporter light, replicate 1 = 2.05e5; firefly reporter light, replicate 2 = 2.67e5; Renilla control light, replicate 1 = 4.20e5; Renilla control light, replicate 2 = 4.73e5; inactive.
pbl [DRSC11381] gave firefly reporter light, replicate 1 = 9.05e5; firefly reporter light, replicate 2 = 7.50e5; Renilla control light, replicate 1 = 9.21e5; Renilla control light, replicate 2 = 1.17e6; inactive.
pbl [DRSC26301] gave firefly reporter light, replicate 1 = 3.73e5; firefly reporter light, replicate 2 = 2.83e5; Renilla control light, replicate 1 = 6.54e5; Renilla control light, replicate 2 = 6.80e5; inactive.
CG14505 [DRSC06476] scored firefly reporter light, replicate 1 = 1.17e5; firefly reporter light, replicate 2 = 89781; Renilla control light, replicate 1 = 2.13e6; Renilla control light, replicate 2 = 2.13e6; inactive.
For CG33506 [DRSC05981] the deposit lists firefly reporter light, replicate 1 = 6.05e5; firefly reporter light, replicate 2 = 8.58e5; Renilla control light, replicate 1 = 1.83e6; Renilla control light, replicate 2 = 2.15e6; inactive.
CG12992 [DRSC19512] scored firefly reporter light, replicate 1 = 4.36e5; firefly reporter light, replicate 2 = 3.54e5; Renilla control light, replicate 1 = 2.82e6; Renilla control light, replicate 2 = 2.20e6; inactive.
With knock-down of out [DRSC19347], the record shows firefly reporter light, replicate 1 = 60499; firefly reporter light, replicate 2 = 80398; Renilla control light, replicate 1 = 4.91e5; Renilla control light, replicate 2 = 5.53e5; inactive.
With knock-down of out [DRSC28913] the results were firefly reporter light, replicate 1 = 3.07e5; firefly reporter light, replicate 2 = 3.28e5; Renilla control light, replicate 1 = 1.06e6; Renilla control light, replicate 2 = 1.05e6; inactive.
Silencing of CG33306 [DRSC01899] resulted in: firefly reporter light, replicate 1 = 8.46e5; firefly reporter light, replicate 2 = 6.71e5; Renilla control light, replicate 1 = 1.04e6; Renilla control light, replicate 2 = 1.29e6; inactive.
For CG33306 [DRSC29187], the values are firefly reporter light, replicate 1 = 4.03e5; firefly reporter light, replicate 2 = 8.63e5; Renilla control light, replicate 1 = 1.71e6; Renilla control light, replicate 2 = 1.47e6; inactive.
Silencing of Vps15 [DRSC16553] resulted in: firefly reporter light, replicate 1 = 42689; firefly reporter light, replicate 2 = 61689; Renilla control light, replicate 1 = 3.65e5; Renilla control light, replicate 2 = 5.15e5; inactive.
Vps15 [DRSC36917] scored inactive.
With knock-down of Vps15 [DRSC36918] the results were inactive.
Rassf [DRSC15612] gave firefly reporter light, replicate 1 = 54899; firefly reporter light, replicate 2 = 1.15e5; Renilla control light, replicate 1 = 5.36e5; Renilla control light, replicate 2 = 5.58e5; inactive.
Rassf [DRSC28891] gave firefly reporter light, replicate 1 = 3.59e5; firefly reporter light, replicate 2 = 3.06e5; Renilla control light, replicate 1 = 1.48e6; Renilla control light, replicate 2 = 9.58e5; inactive.
Against Mnt [DRSC17894], the entry reads firefly reporter light, replicate 1 = 30670; firefly reporter light, replicate 2 = 33321; Renilla control light, replicate 1 = 7.75e5; Renilla control light, replicate 2 = 4.42e5; active.
With knock-down of Mnt [DRSC18480], the screen gave firefly reporter light, replicate 1 = 1.84e5; firefly reporter light, replicate 2 = 2.71e5; Renilla control light, replicate 1 = 3.46e6; Renilla control light, replicate 2 = 2.91e6; inactive.
With knock-down of ClpP [DRSC02806] the results were firefly reporter light, replicate 1 = 1.45e6; firefly reporter light, replicate 2 = 8.22e5; Renilla control light, replicate 1 = 2.14e6; Renilla control light, replicate 2 = 1.70e6; inactive.
Knock-down of CG33284 [DRSC22905] gave: firefly reporter light, replicate 1 = 3.28e5; firefly reporter light, replicate 2 = 8.30e5; Renilla control light, replicate 1 = 6.01e5; Renilla control light, replicate 2 = 9.45e5; inactive.
After knock-down of CG33284 [DRSC29777] the results were firefly reporter light, replicate 1 = 4.37e5; firefly reporter light, replicate 2 = 4.26e5; Renilla control light, replicate 1 = 9.99e5; Renilla control light, replicate 2 = 1.19e6; inactive.
Knock-down of CG12848 [DRSC04128] came out at: firefly reporter light, replicate 1 = 4.06e5; firefly reporter light, replicate 2 = 4.40e5; Renilla control light, replicate 1 = 2.07e6; Renilla control light, replicate 2 = 1.92e6; inactive.
Depletion of Acp32CD [DRSC01858] came out at: firefly reporter light, replicate 1 = 1.51e5; firefly reporter light, replicate 2 = 2.26e5; Renilla control light, replicate 1 = 1.36e6; Renilla control light, replicate 2 = 1.69e6; inactive.
Knock-down of Acp32CD [DRSC23817] resulted in: firefly reporter light, replicate 1 = 1.14e6; firefly reporter light, replicate 2 = 1.13e6; Renilla control light, replicate 1 = 1.25e6; Renilla control light, replicate 2 = 1.00e6; inactive.
Silencing of Acp32CD [DRSC38978] came out at: firefly reporter light, replicate 1 = 9.64e5; firefly reporter light, replicate 2 = 7.98e5; Renilla control light, replicate 1 = 1.79e6; Renilla control light, replicate 2 = 1.24e6; inactive.

Called active, of those listed so far:
Mnt [DRSC17894] — firefly reporter light, replicate 1 = 30670; firefly reporter light, replicate 2 = 33321; Renilla control light, replicate 1 = 7.75e5; Renilla control light, replicate 2 = 4.42e5; Outcome = active
